PubChem BioAssay AID1259254 | NCATS | 2017

Purpose: 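Genome-wide screen for genes that prevent DNA re-replication in cancer cells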 (primary screen)
Cell system: human HCT116 colorectal cancer cells
Knock-down reagent: single siRNA against human genes
Duration: 3 days
Read-out: 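Imaged Hoechst DNA stain sorts each cell into a cycle phase by DNA amount; per plate, G2 fraction set to 0% for non-targeting and 100% for GMNN siRNA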
Scale: G2 robust z-score and G2 cells, % of GMNN control: higher = more G2 cells, more excess DNA replication
Call rule: 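An siRNA counts as active if its G2 robust z-score lies at least 5 MADs above the screen median; here such calls match roughly 38% of GMNN control or more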
Here is an unselected part of about 59,000 deposited reagents. About 1,550 of all reagents (2.6%) count as active. 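G2 share is only a proxy for re-replication; each gene was hit by three separate siRNAs, and active genes were retested.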 Reagents against one gene are numbered here. Further read-outs or replicates are left out here. Not stated in the record: the amount of reagent.

{"target": "PRDM7", "siRNA no.": 1, "G2 robust z-score": 0.884, "G2 cells, % of GMNN control": 9.18, "call": "inactive"}
{"target": "PRDM7", "siRNA no.": 2, "G2 robust z-score": -0.616, "G2 cells, % of GMNN control": -1.37, "call": "inactive"}
{"target": "PRDM7", "siRNA no.": 3, "G2 robust z-score": -0.5, "G2 cells, % of GMNN control": -0.549, "call": "inactive"}
{"target": "DVL2", "siRNA no.": 1, "G2 robust z-score": -0.459, "G2 cells, % of GMNN control": -0.262, "call": "inactive"}
{"target": "DVL2", "siRNA no.": 2, "G2 robust z-score": -0.479, "G2 cells, % of GMNN control": -0.402, "call": "inactive"}
{"target": "DVL2", "siRNA no.": 3, "G2 robust z-score": 0.24, "G2 cells, % of GMNN control": 4.66, "call": "inactive"}
{"target": "OR8G1", "siRNA no.": 1, "G2 robust z-score": 4.35, "G2 cells, % of GMNN control": 33.5, "call": "inactive"}
{"target": "OR8G1", "siRNA no.": 2, "G2 robust z-score": 0.467, "G2 cells, % of GMNN control": 6.25, "call": "inactive"}
{"target": "OR8G1", "siRNA no.": 3, "G2 robust z-score": 1.94, "G2 cells, % of GMNN control": 16.6, "call": "inactive"}
{"target": "LOC646938", "siRNA no.": 1, "G2 robust z-score": 0.651, "G2 cells, % of GMNN control": 7.55, "call": "inactive"}
{"target": "LOC646938", "siRNA no.": 2, "G2 robust z-score": 0.245, "G2 cells, % of GMNN control": 4.69, "call": "inactive"}
{"target": "LOC646938", "siRNA no.": 3, "G2 robust z-score": 0.228, "G2 cells, % of GMNN control": 4.57, "call": "inactive"}
{"target": "EGLN3", "siRNA no.": 1, "G2 robust z-score": 0.656, "G2 cells, % of GMNN control": 7.58, "call": "inactive"}
{"target": "EGLN3", "siRNA no.": 2, "G2 robust z-score": 1.62, "G2 cells, % of GMNN control": 14.4, "call": "inactive"}
{"target": "EGLN3", "siRNA no.": 3, "G2 robust z-score": 0.369, "G2 cells, % of GMNN control": 5.57, "call": "inactive"}
{"target": "MCL1", "siRNA no.": 1, "G2 robust z-score": -0.252, "G2 cells, % of GMNN control": 1.19, "call": "inactive"}
{"target": "MCL1", "siRNA no.": 2, "G2 robust z-score": -0.425, "G2 cells, % of GMNN control": -0.0194, "call": "inactive"}
{"target": "MCL1", "siRNA no.": 3, "G2 robust z-score": -0.923, "G2 cells, % of GMNN control": -3.53, "call": "inactive"}
{"target": "ABHD13", "siRNA no.": 1, "G2 robust z-score": -0.0731, "G2 cells, % of GMNN control": 2.45, "call": "inactive"}
{"target": "ABHD13", "siRNA no.": 2, "G2 robust z-score": -1.08, "G2 cells, % of GMNN control": -4.61, "call": "inactive"}
{"target": "ABHD13", "siRNA no.": 3, "G2 robust z-score": -0.357, "G2 cells, % of GMNN control": 0.455, "call": "inactive"}
{"target": "STX11", "siRNA no.": 1, "G2 robust z-score": -0.0679, "G2 cells, % of GMNN control": 2.49, "call": "inactive"}
{"target": "STX11", "siRNA no.": 2, "G2 robust z-score": -0.0829, "G2 cells, % of GMNN control": 2.38, "call": "inactive"}
{"target": "STX11", "siRNA no.": 3, "G2 robust z-score": -0.87, "G2 cells, % of GMNN control": -3.16, "call": "inactive"}

Ordered by “G2 cells, % of GMNN control” (ascending): some entries from above.
{"target": "DVL2", "siRNA no.": 3, "G2 robust z-score": 0.24, "G2 cells, % of GMNN control": 4.66, "call": "inactive"}
{"target": "OR8G1", "siRNA no.": 2, "G2 robust z-score": 0.467, "G2 cells, % of GMNN control": 6.25, "call": "inactive"}
{"target": "OR8G1", "siRNA no.": 1, "G2 robust z-score": 4.35, "G2 cells, % of GMNN control": 33.5, "call": "inactive"}
